No constants are given. Whether binding was seen depends on the method and setting. For some of these results: In cells and extracts the contact can be indirect. Some entries that bind do so weakly or less than the wild type.

Sequences of proteins named here, by UniProt entry; tags and fusion partners are left off.
UniProt P26369: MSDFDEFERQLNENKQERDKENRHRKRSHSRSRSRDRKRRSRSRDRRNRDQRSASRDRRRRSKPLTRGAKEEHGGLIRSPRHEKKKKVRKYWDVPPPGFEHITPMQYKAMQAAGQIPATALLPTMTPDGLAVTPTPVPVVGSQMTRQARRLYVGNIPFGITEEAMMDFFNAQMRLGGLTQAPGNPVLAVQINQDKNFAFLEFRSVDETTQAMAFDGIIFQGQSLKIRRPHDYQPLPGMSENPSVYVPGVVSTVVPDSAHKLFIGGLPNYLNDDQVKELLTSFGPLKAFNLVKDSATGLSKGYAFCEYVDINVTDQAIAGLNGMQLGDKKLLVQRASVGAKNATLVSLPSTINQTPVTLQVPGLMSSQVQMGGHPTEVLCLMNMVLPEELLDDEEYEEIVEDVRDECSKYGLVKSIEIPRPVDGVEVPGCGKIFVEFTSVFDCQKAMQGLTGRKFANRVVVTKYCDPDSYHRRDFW

The target in experiment [1] is T1, endogenous Atx1 (mouse cerebellum) (mouse (endogenous in cerebellum)) (UniProt P54254).
T1 sequence: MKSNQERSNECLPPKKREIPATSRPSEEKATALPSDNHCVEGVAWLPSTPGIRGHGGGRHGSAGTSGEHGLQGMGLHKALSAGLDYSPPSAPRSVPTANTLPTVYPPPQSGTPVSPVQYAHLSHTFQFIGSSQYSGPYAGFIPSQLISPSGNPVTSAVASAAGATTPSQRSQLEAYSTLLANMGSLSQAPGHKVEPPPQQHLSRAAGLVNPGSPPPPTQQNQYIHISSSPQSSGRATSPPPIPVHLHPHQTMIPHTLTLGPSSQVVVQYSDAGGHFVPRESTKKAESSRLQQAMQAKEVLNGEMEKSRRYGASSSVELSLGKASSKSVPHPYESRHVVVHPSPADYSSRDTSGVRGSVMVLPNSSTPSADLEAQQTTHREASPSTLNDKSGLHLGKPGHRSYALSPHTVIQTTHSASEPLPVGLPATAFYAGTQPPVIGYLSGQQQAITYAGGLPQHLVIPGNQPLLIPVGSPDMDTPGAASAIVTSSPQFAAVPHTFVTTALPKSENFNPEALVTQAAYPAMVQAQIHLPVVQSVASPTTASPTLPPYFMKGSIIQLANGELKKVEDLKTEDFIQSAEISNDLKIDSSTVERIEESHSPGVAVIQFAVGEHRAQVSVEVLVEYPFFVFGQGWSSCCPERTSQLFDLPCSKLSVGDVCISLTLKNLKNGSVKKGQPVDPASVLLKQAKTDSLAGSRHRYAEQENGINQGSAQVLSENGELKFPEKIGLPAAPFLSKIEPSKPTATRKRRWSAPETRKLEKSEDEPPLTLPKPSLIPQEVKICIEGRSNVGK
As to the kind of experiment: co-IP; mouse cerebellum extracts; immunoprecipitated with anti-Atx1 (11NQ) or anti-U2AF65 antibodies, control anti-flag; blotted with anti-U2AF65 or anti-Atx1; TS buffer, 1.0% NP40, RNAse inhibitors.

Experiment [2] has as its target endogenous U2AF65 (mouse cerebellum) (mouse (endogenous in cerebellum)) (UniProt P26369). The description is as above.
The target of experiment [3] is T2, 14-3-3ζ (UniProt P63104 1-245).
T2 construct: 14-3-3 protein, isoform zeta; also called 14-3-3 isoform ζ
T2 sequence (looked up): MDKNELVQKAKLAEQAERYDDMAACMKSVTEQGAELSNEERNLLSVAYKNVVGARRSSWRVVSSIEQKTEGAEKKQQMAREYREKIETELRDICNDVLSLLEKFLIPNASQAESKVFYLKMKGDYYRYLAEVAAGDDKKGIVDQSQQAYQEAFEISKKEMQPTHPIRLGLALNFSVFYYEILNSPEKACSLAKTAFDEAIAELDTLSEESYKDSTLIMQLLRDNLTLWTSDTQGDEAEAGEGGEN
As to the kind of experiment: condition: 14-3-3ζ 0.012–0.037 mM, peptide 0.1–0.4 mM; ITC; 50 mM sodium phosphate buffer (pH 7.0), 150 mM NaCl, 5 mM DTT; 295 K; protein in the cell, peptide in the syringe; single-site model; averages of three measurements; both purified.

The target of experiment [4] is T2, 14-3-3ζ. As to the kind of experiment: ITC; 50 mM sodium phosphate buffer (pH 7.0), 150 mM NaCl, 5 mM DTT; 295 K; protein in the cell, peptide in the syringe; single-site model; averages of three measurements; both purified. Background: Isothermal titration calorimetry measures the heat released or taken up as one component is titrated into another.

As for “endogenous U2AF65 (mouse cerebellum) (from UniProt P26369 1-475)”, the binding entry in experiment [1] was “binds”.

B1: endogenous Atx1 (mouse cerebellum) (protein, UniProt P54254 1-791)
chain: T1 sequence
B1: in experiment [2], the binding entry is “binds”.

B2: Atx1_A_ULM_PE (peptide)
peptide: ATRKRRWAAPE
notes: also called S776A-mutated peptide; S776A mutant peptide; source: synthetic peptide; bought: Pepceuticals Limited
With B2, the binding entry with 14-3-3ζ [3] was “no binding”.

B3: Atx1_D_ULM_PE (peptide)
peptide: ATRKRRWDAPE
notes: also called S776D peptide; S776D mutant peptide; source: synthetic peptide; bought: Pepceuticals Limited
As for B3, the binding entry in the experiment with 14-3-3ζ [4] is “no binding (tested: 0.22 mM 14-3-3ζ)”.

The record behind these values is PMC2791216, “Phosphorylation of S776 and 14-3-3 Binding Modulate Ataxin-1 Interaction with Splicing Factors” (PLoS ONE, 2009).
